According to paper PMC12152636:
These are yes or no findings as the source states them, for the method shown.

Protein sequences, listed by entry. Tags and fused reporters are not part of them. Lines headed by an entry give the natural chain unless they say otherwise; changes in a name come on top. Chains listed by the source or under a name are the forms on record and can include a tag or linker. Residues count along the entry.
CTD2′ (residues 1657 to 1739 of the D. melanogaster Rpb1 C-terminal domain), unphosphorylated (P04052, form named): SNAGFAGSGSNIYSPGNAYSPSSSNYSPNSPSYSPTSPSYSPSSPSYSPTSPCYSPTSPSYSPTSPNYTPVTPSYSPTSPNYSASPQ

Biological target: CTD2′ (residues 1657 to 1739 of the D. melanogaster Rpb1 C-terminal domain), unphosphorylated (D. melanogaster) (UniProt P04052)
Experiment: SEC-MALS; Superdex S-100 Increase column, 25 mM sodium phosphate pH 7.5, 50 mM NaCl, 4 mM DTT; 20 μl injected, sample concentration 10 mg/ml (concentrated to 1.6 mM); flow 0.5 ml/min; molar mass 8.8 kDa, consistent with a monomer; both purified

## CTD2′ (residues 1657 to 1739 of the D. melanogaster Rpb1 C-terminal domain), unphosphorylated (from UniProt P04052 1657-1739) (domain or fragment)
  binding: no binding (tested: 10 mg/ml (1.6 mM) loaded)
